Consider 38 molecules from paper PMC12670160, “A drug-repurposing screen of FDA- and EMA-approved drugs identifies two NF-κB inhibitors active against eumycetoma” (Journal of Antimicrobial Chemotherapy, 2025).

Counter-ions that a name gives are not always drawn. The whole screen tested about 5,300 compounds, of which about 130 (2.5%) showed an effect of 50% or more. The list shows a part of the results.

In this assay the test system is M. mycetomatis strain mm55. Particulars: primary screen, metabolic activity vs growth control; 96 h, 2 µM; inhibitor.
As for `c1ccc(Cn2c(-c3ccc(OC[C@H](C4CCNCC4)n4c(-c5ccccc5)nc5ccccc54)cc3)nc3ccccc32)cc1` [ONC0001286, deltarasin], the “% viability” value was determined as 89.93%.

As to `O=C(Nc1cnc(Cl)nc1)c1ccc(F)c(F)c1` [ONC0001921, ica069673], the “% viability” value was 29.87%.

On to `CCN(CCCCOC(=O)c1ccc(OC)c(OC)c1)C(C)Cc1ccc(OC)cc1` (centres unmarked) [ONC0000662, mebeverine hydrochloride], for which the “% viability” value was 77.36%.

For the molecule `COc1cc(NC(=O)c2ccccn2)ccc1Cl` [ONC0000075, vu0361737], the “% viability” value was determined as 122.2%.

Take `Cc1cc(C(C)(C)C)cc(C)c1CC1=NCCN1` [ONC0003456, xylometazoline hydrochloride]: the “% viability” value is given as 64.58%.

For the molecule `CCN(CC)C(=O)C1(c2ccccc2)CC1CN` (centres unmarked) [ONC0004259, milnacipran hydrochloride], the “% viability” value is listed as 81.75%.

With `CN1CCC2=C(C1)c1ccccc1Cc1ccccc12` [ONC0005445, setiptiline], the “% viability” value was determined as 113.1%.

Consider `C[C@]12C=CC(=O)N[C@@H]1CC[C@@H]1[C@@H]2CC[C@]2(C)[C@@H](C(=O)Nc3cc(C(F)(F)F)ccc3C(F)(F)F)CC[C@@H]12` [ONC0004626, dutasteride], for which the “% viability” value is reported as 85.92%.

Regarding `O=C1[C@H]2CCCC[C@H]2C(=O)N1CCCCN1CCN(c2nsc3ccccc23)CC1` [ONC0003349, perospirone], the “% viability” value is 82.07%.

For `CC(C)c1cccc2c(-c3ccccc3)cc(-c3ccc(-c4ccc(C(=O)O)cc4)[nH]3)nc12` [ONC0001488, er50891], the “% viability” value was found to be 51.81%.

For the molecule `CO[C@H]1/C=C/O[C@@]2(C)Oc3c(C)c(O)c4c(O)c(c5c(nc6cc(C)ccn65)c4c3C2=O)NC(=O)/C(C)=C\C=C\[C@H](C)[C@H](O)[C@@H](C)[C@@H](O)[C@@H](C)[C@H](OC(C)=O)[C@@H]1C` [ONC0004209, rifaximin], the “% viability” value came to 120.7%.

`Cc1ncc(CO)c(C=O)c1O` [ONC0003255, pyridoxal]: the “% viability” value is listed as 96.31%.

As for `CCNCCS(=O)(=O)NC[C@@]1(c2ccccc2)SC(NC(=O)C(C)(C)C)=NN1C(=O)C(C)(C)C` [ONC0000804, litronesib], the “% viability” value was 77.28%.

On to `CCN(CC)c1ccc(/C=N/NC(=O)c2ccc(O)cc2)cc1` [ONC0002533, dy131], for which the “% viability” value came out at 70.08%.

On to `COC(=O)[C@H](CC(C)C)NC(=O)[C@H](N)CC(C)C` [ONC0003694, leuleuomehcl], for which the “% viability” value is 68.85%.

Regarding `Nc1ccn([C@H]2C[C@H](O)[C@@H](CO)O2)c(=O)n1` [ONC0001142, 2deoxycytidine hydrochloride], the “% viability” value is 61.43%.

With `O=C(O)CC(=O)C(=O)O` [ONC0005597, oxaloacetate], the “% viability” value was found to be 79.02%.

Consider `O=C(O)CN(CCN(CC(=O)O)CC(=O)O)CC(=O)O` [ONC0004164, ethylenediamine tetracetic acid], for which the “% viability” value is on record as 70.32%.

As for `CC(C)(O)CC[C@@H](O)[C@](C)(O)[C@@H]1CC[C@@]2(O)C3=CC(=O)[C@@H]4C[C@@H](O)[C@@H](O)C[C@]4(C)[C@@H]3CC[C@]12C` [ONC0005208, 20hydroxyecdysone], the “% viability” value is 116.5%.

In the case of `COc1cc(-c2ncn(/C=C\C(=O)OC(C)C)n2)cc(C(F)(F)F)c1` [ONC0005191, kpt185], the “% viability” value stood at 76.75%.

Regarding `COc1ccc(-c2nc(N3CCOCC3)c3sc(CN(C)c4ncc(C(=O)NO)cn4)cc3n2)cn1` [ONC0004323, cudc907], the “% viability” value was 140.8%.

For the molecule `CCCNC(=O)NS(=O)(=O)c1ccc(Cl)cc1` [ONC0000328, chlorpropamide], the “% viability” value was 70.17%.

With `CCN(CC)C(C)CN1c2ccccc2Sc2ccccc21` (centres unmarked) [ONC0005329, profenamine], the “% viability” value was determined as 105.4%.

As for `CC1CS(=O)(=O)CCN1N=Cc1ccc([N+](=O)[O-])o1` (centres unmarked) [ONC0002935, nifurtimox], the “% viability” value worked out at 70.95%.

Turning to `COc1ccc(Cl)c(Nc2nc3ccccc3nc2NS(=O)(=O)c2cccc(NC(=O)C(C)(C)N)c2)c1` [ONC0000795, pilaralisib], the “% viability” value stood at 73.55%.

Regarding `CN1CCN(CCc2ccc(Cl)c(Cl)c2)CC1` [ONC0000113, bd1063], the “% viability” value came to 72.11%.

Turning to `CC(=O)O[C@]1(C(C)=O)CC[C@H]2[C@@H]3C=C(Cl)C4=CC(=O)CC[C@]4(C)[C@H]3CC[C@@]21C` [ONC0004202, chlormadinone acetate], the “% viability” value worked out at 112.8%.

With `C=CCN(C)CCCCCCOc1ccc(C(=O)c2ccc(Br)cc2)c(F)c1` [ONC0001825, ro 488071 fumarate], the “% viability” value turned out to be 29.93%.

For `Cc1cnc(Nc2ccc(OCCN3CCCC3)cc2)nc1Nc1cccc(S(=O)(=O)NC(C)(C)C)c1` [ONC0004342, fedratinib sar302503 tg101348], the “% viability” value amounted to 76.05%.

For the molecule `Cn1ncnc1[C@H]1c2n[nH]c(=O)c3cc(F)cc(c23)N[C@@H]1c1ccc(F)cc1` [ONC0004437, talazoparib bmn 673], the “% viability” value amounted to 134.3%.

`c1ccc(Cn2c(N3CCNCC3)nc3ccccc32)cc1` [ONC0003649, lerisetron]: the “% viability” value came out at 53.42%.

Turning to `CC(C)Oc1ccc(-c2cnc3c(-c4ccnc5ccccc45)cnn3c2)cc1` [ONC0005132, dmh1], the “% viability” value turned out to be 98.5%.

For `Cc1nc2c([nH]1)-c1ccccc1N(C(=O)c1ccc(NC(=O)c3ccccc3-c3ccccc3)cc1)CC2` [ONC0004899, conivaptan hcl vaprisol], the “% viability” value is on record as 94.49%.

Turning to `CC1=C(C)C(=O)C(C(CCCCCC(=O)O)c2ccccc2)=C(C)C1=O` (centres unmarked) [ONC0001282, seratrodast], the “% viability” value is given as 73.28%.

`Cc1ccc2c(c1)C(=O)[C@]1(O)CCN(c3ccccc3)C1=N2` [ONC0005093, blebbistatin]: the “% viability” value amounted to 85.85%.

Take `COc1ccc2c(Oc3ccc(NC(=O)c4c(C)n(CC(C)(C)O)n(-c5ccccc5)c4=O)nc3)ccnc2c1` [ONC0004459, amg458]: the “% viability” value was 144.8%.

Regarding `COc1c(C)cnc(Cn2cnc3c(Cl)nc(N)nc32)c1C` [ONC0000029, biib021], the “% viability” value worked out at 96.14%.

Regarding `O=c1[nH]c2ccccc2c(=O)n1CCCN1CCN(c2ccccc2)CC1` [ONC0002331, pelanserin], the “% viability” value turned out to be 57.27%.
